The record followed here is publication PMC12043166.

No constants are given. Whether binding was seen depends on the method and setting. Binding seen in cells or lysates may run through a third protein.

The target of the experiment is T1, protein tyrosine phosphatase nonreceptor 21 (human) (UniProt Q16825).
T1 sequence: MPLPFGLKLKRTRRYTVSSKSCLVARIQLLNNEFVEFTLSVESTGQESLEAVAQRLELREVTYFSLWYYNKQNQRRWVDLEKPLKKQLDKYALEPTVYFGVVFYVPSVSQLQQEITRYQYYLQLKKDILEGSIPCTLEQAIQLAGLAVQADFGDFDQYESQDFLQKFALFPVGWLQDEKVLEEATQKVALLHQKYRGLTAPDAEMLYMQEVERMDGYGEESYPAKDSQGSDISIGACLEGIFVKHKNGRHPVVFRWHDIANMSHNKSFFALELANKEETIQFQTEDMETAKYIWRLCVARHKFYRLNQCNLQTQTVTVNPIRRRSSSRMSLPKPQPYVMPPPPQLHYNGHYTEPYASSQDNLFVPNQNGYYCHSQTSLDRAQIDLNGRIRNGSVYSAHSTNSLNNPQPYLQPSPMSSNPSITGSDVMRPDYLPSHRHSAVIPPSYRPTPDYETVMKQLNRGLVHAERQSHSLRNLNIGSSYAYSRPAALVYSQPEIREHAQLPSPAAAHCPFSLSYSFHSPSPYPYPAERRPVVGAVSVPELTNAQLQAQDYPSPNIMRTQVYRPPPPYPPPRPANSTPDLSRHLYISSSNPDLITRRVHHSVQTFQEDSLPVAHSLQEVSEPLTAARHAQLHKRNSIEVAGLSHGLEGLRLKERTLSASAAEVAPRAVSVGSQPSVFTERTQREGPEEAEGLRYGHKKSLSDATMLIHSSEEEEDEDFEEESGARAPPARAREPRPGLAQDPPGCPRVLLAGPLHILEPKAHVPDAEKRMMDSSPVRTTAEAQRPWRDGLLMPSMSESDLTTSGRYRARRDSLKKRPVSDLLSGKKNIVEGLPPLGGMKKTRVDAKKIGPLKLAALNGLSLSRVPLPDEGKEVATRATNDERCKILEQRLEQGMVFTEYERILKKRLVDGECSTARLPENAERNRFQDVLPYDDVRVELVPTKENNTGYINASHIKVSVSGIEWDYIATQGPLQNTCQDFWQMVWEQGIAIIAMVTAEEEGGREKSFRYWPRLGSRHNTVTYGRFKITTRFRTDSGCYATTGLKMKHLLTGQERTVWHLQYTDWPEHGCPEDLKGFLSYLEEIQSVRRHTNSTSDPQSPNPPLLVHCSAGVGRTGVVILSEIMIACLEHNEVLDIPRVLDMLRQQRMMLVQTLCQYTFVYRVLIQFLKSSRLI
The experiment in a line: co-IP; cells lysed in NP-40 buffer with PMSF and protease inhibitors; lysates incubated with antibody to Cdk1, Cyclin B1, PTPN21, GADD45A or control IgG overnight at 4 °C, then protein A/G beads for six hours; beads washed 5 times; western blot; control and PTPN21-overexpressing cells compared for Cdk1 and Cyclin B1.

B1: growth arrest and DNA damage-inducible 45α (protein, UniProt P24522 1-165)
chain: MTLEEFSAGEQKTERMDKVGDALEEVLSKALSQRTITVGVYEAAKLLNVDPDNVVLCLLAADEDDDRDVALQIHFTLIQAFCCENDINILRVSNPGRLAELLLLETDAGPAASEGAEQPPDLHCVLVTNPHSSQWKDPALSQLICFCRESRYMDQWVPVINLPER
Regarding B1, the binding result is “no binding”.
